Data reported in the supplement of paper PMC3334620.
In all, about 33,000 sequences were measured (“E-score (-0.5 to 0.5)”: median about -0.0059, highest 2% from about 0.26 on). This is one part of the list.

The sequences below were run against T1, Cin5 (UniProt P40917) (assay: PBM E-score (8-mer binding enrichment) (E-score (-0.5 to 0.5)); higher = stronger / more preferred TF binding). Conditions: protein concentration: 100 nM; construct: GST-full length.
T1 sequence: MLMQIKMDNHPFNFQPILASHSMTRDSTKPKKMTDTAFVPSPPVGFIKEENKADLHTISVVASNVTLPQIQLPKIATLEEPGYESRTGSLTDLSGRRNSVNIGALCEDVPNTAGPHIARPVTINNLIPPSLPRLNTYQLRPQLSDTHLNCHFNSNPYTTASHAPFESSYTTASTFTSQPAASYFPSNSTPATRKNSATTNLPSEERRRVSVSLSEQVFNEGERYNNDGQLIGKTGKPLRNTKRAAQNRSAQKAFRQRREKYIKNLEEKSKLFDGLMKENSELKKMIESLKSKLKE
How it was run: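 Detection of bound protein used fluorescent anti-GST, with scans normalised by masliner. The proteins were GST-tagged yeast transcription factors applied at about 100-200 nM to universal all-10-mer Agilent arrays made double-stranded by primer extension. Each ungapped eight-base word, pooled with its reverse complement, was scored with an E-score from the Universal PBM Analysis Suite.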

| Sequence | PBM E-score |
| --- | --- |
| GCTATAAC | -0.0874 |
| ACCTTCGG | -0.019 |
| CCATATTC | -0.0364 |
| ATCAGCCC | 0.0897 |
| CAATGTCC | -0.088 |
| AACTGGGT | -0.068 |
| ACCTTCCG | 0.0586 |
| AAATGCCC | -0.0815 |
| ACGATTTG | 0.155 |
| CTATTAGC | 0.155 |
| CGTCTGAA | -0.133 |
| AATTTTAA | 0.173 |
| GGTTCGCA | -0.122 |
| CTGGCTTA | -0.0304 |
| GGTAAAGA | 0.104 |
| CTGTACCC | -0.142 |
| ATTAAATG | 0.245 |
| AATGAGTA | 0.24 |
| GCGGTGCA | -0.225 |
| ATAGCCAA | 0.166 |
| ACAGCGTC | 0.00869 |
| CACTGGAG | -0.2 |

| Sequence | PBM E-score |
| --- | --- |
| AGGAGCCT | -0.382 |
| ATCAGCAG | 0.197 |
| CGGACGCC | -0.22 |
| ACATCCGG | 0.0742 |
| GCTTGGGA | 0.00656 |
| AATGGCCT | 0.0447 |
| GGATGGAA | -0.0365 |
| ATTTAATC | 0.249 |
| CCAAGTTA | 0.0982 |
| TTCCGAAA | 0.021 |
| ATCATAAA | 0.131 |
| GGAATAAA | 0.0744 |
| CGGACCTA | 0.0341 |
| GGGTCCAA | -0.0685 |
| TAAGTACA | 0.149 |
| ACACTCCC | -0.0629 |
| CATTTTCA | 0.197 |
| GGTCCGTA | -0.149 |
| CAGGAATA | 0.0439 |
| CAGACTAC | -0.154 |
| CTTAATTA | 0.0921 |
| CAACCTTA | 0.117 |

| Sequence | PBM E-score |
| --- | --- |
| ATAGACTC | -0.171 |
| CAAGCCAA | 0.0487 |
| GAGTAGCA | 0.0893 |
| TAGTCCAA | -0.0825 |
| AGGCCTGG | -0.274 |
| ACACAGCG | 0.113 |
| CGTTCCAC | -0.189 |
| ATTAAAGA | 0.138 |
| TCGTTCCA | -0.27 |
| ATGTTTGC | 0.0258 |
| AGTACTGG | -0.156 |
| ACATCGTA | 0.0136 |
| ACATACGA | 0.137 |
| TCCGTGCA | 0.0872 |
| GTGATGGA | 0.0255 |
| CTAAAACC | -0.111 |
| CGGCCTAG | -0.0903 |
| ACGTACGT | 0.0514 |
| ACTACTCA | 0.112 |
| ACCGAGCG | -0.0819 |
| CGCGTCGA | 0.0758 |
| ACAGCACG | -0.0485 |

Single entries from the results shown:
AATGAGTA – PBM E-score: 0.24
CTTAATTA – PBM E-score: 0.0921

Remaining list, next part.

| Sequence | PBM E-score |
| --- | --- |
| AAAGGCAC | -0.136 |
| AGTACAAG | 0.0267 |
| AACACCAA | 0.135 |
| ATCATTTC | 0.264 |
| ATACAACG | 0.174 |
| AGGACTAG | -0.0929 |
| GATGCACC | -0.029 |
| CGTTTGTC | 0.0128 |
| GATTGCCC | -0.0542 |
| CTAACCAC | -0.0985 |
| ACTGCTTC | -0.123 |
| AATGTTCA | 0.074 |
| CAAGAAGG | -0.0614 |
| GTGGACCA | -0.0436 |
| CACTCTGC | 0.0346 |
| CGGGGGCC | -0.368 |
| GGTCGGTA | -0.0138 |
| AGACTGAT | 0.0117 |
| CGTCAAGC | -0.155 |
| GTCCGTGA | -0.0178 |
| GAGTACGA | 0.0997 |
| GCCATGGA | -0.104 |

| Sequence | PBM E-score |
| --- | --- |
| TCGGCTCA | -0.0984 |
| GCAGTATA | 0.107 |
| CGTCGCGA | 0.0627 |
| ACCTGGCT | -0.137 |
| AACATGAC | 0.196 |
| TATCGGAA | 0.143 |
| GTCGCTTA | 0.177 |
| GTGCCCTA | -0.2 |
| AATCCCAG | -0.00941 |
| CTAGCGAC | -0.11 |
| AGTCCATC | -0.0838 |
| GTCTTTAA | -0.00854 |
| CCGTATAG | -0.175 |
| CTACGTGC | -0.0915 |
| ATTTTATG | 0.208 |
| GCAGAAGA | -0.0227 |
| AGACATAA | 0.124 |
| CCAGTACG | -0.0793 |
| ATCGCGGG | 0.0556 |
| AGTCTGAG | -0.28 |
| AGTTAAGG | 0.111 |

Exported with each value named: part of the list above
GATGCACC
  PBM E-score: -0.029
CGTTTGTC
  PBM E-score: 0.0128
GATTGCCC
  PBM E-score: -0.0542
